Results deposited as PubChem BioAssay AID1224828 (NIAID, 2016)
This is one part, drawn at random, of about 17,000 reagents tested. Of all reagents, 762 (4.5%) were called active. 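Active calls include both raised and lowered p65 entry, mostly lowered; wells with fewer than 50 cells lack a z-score.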 Raw values are not corrected between plates. A number with no mark means an inactive call. Some reagents were tested in more than one well and are listed for each.

Purpose: 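Regulators linking TLR4 signalling to p65 nuclear translocation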 (primary screen)
System: mouse RAW264.7 G9 macrophage reporter cells (GFP-p65, Tnf promoter-mCherry)
Reagents: siRNA pool against mouse genes, 100 nM
Time to read-out: 2 days siRNA transfection, then 40 min LPS before fixation
Conditions: LPS (Salmonella minnesota R595) at 10 ng/ml
Measurement: 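Imaged p65 nuclear translocation ratio, normalised to the plate median, converted to robust z-scores and averaged across two replicates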
Scale: p65 translocation robust z-score: higher = more nuclear NF-kappaB p65 after LPS than the plate median; nuclear/cytoplasmic p65 ratio: higher = more nuclear NF-kappaB p65
Active means: 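Called active when z exceeds 3.3 or falls under -1.56 (median of Tlr4 controls), giving activity score of at least 50; no calls for control wells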
Meaning of the calls: active = hit (p65 shift raised or lowered); inactive = no clear change

target | p65 translocation robust z-score | nuclear/cytoplasmic p65 ratio, rep 1 | nuclear/cytoplasmic p65 ratio, rep 2 | low cell count flag
Or10ak13 | – | 1.82 | 1.48 | fewer than 50 cells per well; well left out of scoring
Mrps31 | 0.98 | 2.03 | 1.67 | enough cells to score
Cd226 | – | 1.49 | 1.45 | fewer than 50 cells per well; well left out of scoring
Or7e173 | – | 1.4 | 1.17 | fewer than 50 cells per well; well left out of scoring
Pfkm | – | 1.75 | 1.4 | fewer than 50 cells per well; well left out of scoring
Yaf2 | -1.12 | 1.42 | 1.29 | enough cells to score
Adam19 | -0.52 | 1.4 | 1.74 | enough cells to score
Tmem72 | – | 1.25 | 1.54 | fewer than 50 cells per well; well left out of scoring
Klra19 | -1.47 | 1.26 | 1.2 | enough cells to score
Zbtb11os1 | – | 1.33 | 0.894 | fewer than 50 cells per well; well left out of scoring
Dmac2l | 0.37 | 1.55 | 1.65 | enough cells to score
Slc38a7 | 0.22 | 1.57 | 1.93 | enough cells to score
C030006K11Rik | -0.21 | 1.48 | 1.41 | enough cells to score
Prxl2a | 0.27 | 1.4 | 1.5 | enough cells to score
Chrna6 | 0.01 | 1.48 | 1.37 | enough cells to score
Bdkrb2 | -0.13 | 1.78 | 1.28 | enough cells to score
Bdkrb2 | -0.81 | 1.37 | 1.49 | enough cells to score
Clasrp | – | 1.4 | 1.24 | fewer than 50 cells per well; well left out of scoring
Rbpms | 1.66 | 1.71 | 1.35 | enough cells to score
Ube2m | 0.03 | 1.58 | 1.45 | enough cells to score
Gab3 | 1.84 | 1.71 | 1.58 | enough cells to score
Cpa3 | 0.04 | 1.49 | 1.89 | enough cells to score
Ffar3 | -0.25 | 1.41 | 1.61 | enough cells to score
Or8k17 | -0.15 | 1.54 | 1.64 | enough cells to score
Tm9sf2 | -0.18 | 1.34 | 1.19 | enough cells to score
Or4c118 | 0.79 | 1.85 | 1.63 | enough cells to score
Foxc2 | -1 | 1.27 | 1.27 | enough cells to score
Ush1c | -0.63 | 1.51 | 1.33 | enough cells to score
Rtl6 | -1.19 | 1.29 | 1.34 | enough cells to score
Fosl2 | 0.95 | 1.69 | 1.51 | enough cells to score
Hcrt | 1.04 | 1.58 | 1.5 | enough cells to score
Apoh | -0.42 | 1.55 | 1.56 | enough cells to score
Agxt | 0.06 | 1.57 | 1.69 | enough cells to score
Rpl39l | -0.27 | 1.25 | 1.25 | enough cells to score
Bcorl1 | 0.54 | 1.67 | 1.91 | enough cells to score
Cep72 | -0.81 | 1.22 | 1.39 | enough cells to score
Sncaip | – | 1.45 | 1.22 | fewer than 50 cells per well; well left out of scoring
Atp13a5 | 2.09 | 1.44 | 1.82 | enough cells to score
Ripor2 | -0.39 | 1.38 | 1.34 | enough cells to score
Dnajc18 | – | 1.27 | 1.45 | fewer than 50 cells per well; well left out of scoring

No new results follow: 3 of the entries above.
target | p65 translocation robust z-score | nuclear/cytoplasmic p65 ratio, rep 1 | nuclear/cytoplasmic p65 ratio, rep 2 | low cell count flag
Foxc2 | -1 | 1.27 | 1.27 | enough cells to score
Ush1c | -0.63 | 1.51 | 1.33 | enough cells to score
Rtl6 | -1.19 | 1.29 | 1.34 | enough cells to score
